Results published in patent publication US20030091620A1, “Transdermal drug delivery systems containing quaternary ammonium salts and methods of using the same” (priority 1999, published 2003).

What was measured:
E3 organism [1] = test: Zone of Inhibition testing of paper discs saturated with aqueous antimicrobial solutions; assay type: cell-based, gram-positive, coagulase-negative cocci
Description: In this experiment, the effectiveness of various topical antimicrobial agents against the E3 organism was determined using Zone of Inhibition testing of paper discs saturated with aqueous antimicrobial solutions.

E3 organism [2] = test: Zone of Inhibition testing of antimicrobial-loaded transdermal matrix disks; assay type: cell-based, gram-positive, coagulase-negative cocci; settings: 24 h
Description: These patches were cut into 1 cm^2 disks and subjected to Zone of Inhibition testing against the E3 organism with 24-hour incubation.
In the next experiment, placebo matrix patches (18 cm^2 area) were manufactured for a clinical wear study.

CC(C)(C)CC(C)(C)c1ccc(OCCOCC[N+](C)(C)Cc2ccccc2)cc1 [Benzethonium Chloride, benzethonium chloride]
zone of inhibition at 0.4 % strength (E3 organism [1]): 12 mm | zone of inhibition at 0.4 % strength (E3 organism [2]): 17 mm
